Test results reported in the supplement of paper PMC8728848.
The list shows a part of the results.

Legend:
Experiment in all cases: glycan array binding signal (z-score within array); higher = stronger binding
Conditions in all cases: glycan notation: IUPAC condensed, linker removed
[1] = target: Gal(b1-4)GlcNAc(b1-3)Gal(b1-4)Glc
Procedure, shortened: (§1)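 The Consortium for Functional Glycomics database supplied 3228 glycan arrays, of which those lacking an available protein sequence were dropped. The binding signal, a within-array Z-score, was averaged across arrays of the same protein sequence and across linkers. Negative scores can be read as non-binding.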

[2] = target: Gal(b1-4)GlcNAc(b1-3)Gal(b1-4)GlcNAc
Procedure, shortened: as §1

[3] = target: Gal(b1-4)GlcNAc(b1-3)Gal(b1-4)GlcNAc(b1-2)Man(a1-3)[Gal(b1-4)GlcNAc(b1-3)Gal(b1-4)GlcNAc(b1-2)Man(a1-6)]Man(b1-4)GlcNAc(b1-4)GlcNAc
Procedure, shortened: as §1

[4] = target: Gal(b1-4)GlcNAc(b1-3)Gal(b1-4)GlcNAc(b1-2)Man(a1-3)[Gal(b1-4)GlcNAc(b1-3)Gal(b1-4)GlcNAc(b1-2)Man(a1-6)]Man(b1-4)GlcNAc(b1-4)[Fuc(a1-6)]GlcNAc
Procedure, shortened: as §1

[5] = target: Gal(b1-4)GlcNAc(b1-3)Gal(b1-4)GlcNAc(b1-2)[Gal(b1-4)GlcNAc(b1-3)Gal(b1-4)GlcNAc(b1-6)]Man(a1-6)[Gal(b1-4)GlcNAc(b1-3)Gal(b1-4)GlcNAc(b1-2)Man(a1-3)]Man(b1-4)GlcNAc(b1-4)GlcNAc
Procedure, shortened: as §1

[6] = target: Gal(b1-4)GlcNAc(b1-3)Gal(b1-4)GlcNAc(b1-2)[Gal(b1-4)GlcNAc(b1-3)Gal(b1-4)GlcNAc(b1-6)]Man(a1-6)[Gal(b1-4)GlcNAc(b1-3)Gal(b1-4)GlcNAc(b1-2)Man(a1-3)]Man(b1-4)GlcNAc(b1-4)[Fuc(a1-6)]GlcNAc
Procedure, shortened: as §1

[7] = target: Gal(b1-4)GlcNAc(b1-3)Gal(b1-4)GlcNAc(b1-3)Gal(b1-4)GlcNAc
Procedure, shortened: as §1

[8] = target: Gal(b1-4)GlcNAc(b1-3)Gal(b1-4)GlcNAc(b1-3)Gal(b1-4)GlcNAc(b1-2)Man(a1-3)[Gal(b1-4)GlcNAc(b1-3)Gal(b1-4)GlcNAc(b1-3)Gal(b1-4)GlcNAc(b1-2)Man(a1-6)]Man(b1-4)GlcNAc(b1-4)GlcNAc
Procedure, shortened: as §1

[9] = target: Gal(b1-4)GlcNAc(b1-3)Gal(b1-4)GlcNAc(b1-3)Gal(b1-4)GlcNAc(b1-2)Man(a1-3)[Gal(b1-4)GlcNAc(b1-3)Gal(b1-4)GlcNAc(b1-3)Gal(b1-4)GlcNAc(b1-2)Man(a1-6)]Man(b1-4)GlcNAc(b1-4)[Fuc(a1-6)]GlcNAc
Procedure, shortened: as §1

[10] = target: Gal(b1-4)GlcNAc(b1-3)Gal(b1-4)GlcNAc(b1-3)Gal(b1-4)GlcNAc(b1-2)[Gal(b1-4)GlcNAc(b1-3)Gal(b1-4)GlcNAc(b1-3)Gal(b1-4)GlcNAc(b1-6)]Man(a1-6)[Gal(b1-4)GlcNAc(b1-3)Gal(b1-4)GlcNAc(b1-3)Gal(b1-4)GlcNAc(b1-2)Man(a1-3)]Man(b1-4)GlcNAc(b1-4)[Fuc(a1-6)]GlcNAc
Procedure, shortened: as §1

[11] = target: Gal(b1-4)GlcNAc(b1-3)Gal(b1-4)GlcNAc(b1-3)Gal(b1-4)GlcNAc(b1-3)Gal(b1-4)GlcNAc(b1-2)Man(a1-3)[Gal(b1-4)GlcNAc(b1-3)Gal(b1-4)GlcNAc(b1-3)Gal(b1-4)GlcNAc(b1-3)Gal(b1-4)GlcNAc(b1-2)Man(a1-6)]Man(b1-4)GlcNAc(b1-4)GlcNAc
Procedure, shortened: as §1

[12] = target: Gal(b1-4)GlcNAc(b1-3)Gal(b1-4)GlcNAc(b1-3)Gal(b1-4)GlcNAc(b1-3)Gal(b1-4)GlcNAc(b1-2)Man(a1-3)[Gal(b1-4)GlcNAc(b1-3)Gal(b1-4)GlcNAc(b1-3)Gal(b1-4)GlcNAc(b1-3)Gal(b1-4)GlcNAc(b1-2)Man(a1-6)]Man(b1-4)GlcNAc(b1-4)[Fuc(a1-6)]GlcNAc
Procedure, shortened: as §1

[13] = target: Gal(b1-4)GlcNAc(b1-3)Gal(b1-4)GlcNAc(b1-3)Gal(b1-4)GlcNAc(b1-3)Gal(b1-4)GlcNAc(b1-2)[Gal(b1-4)GlcNAc(b1-3)Gal(b1-4)GlcNAc(b1-3)Gal(b1-4)GlcNAc(b1-3)Gal(b1-4)GlcNAc(b1-6)]Man(a1-6)[Gal(b1-4)GlcNAc(b1-3)Gal(b1-4)GlcNAc(b1-3)Gal(b1-4)GlcNAc(b1-3)Gal(b1-4)GlcNAc(b1-2)Man(a1-3)]Man(b1-4)GlcNAc(b1-4)[Fuc(a1-6)]GlcNAc
Procedure, shortened: as §1

[14] = target: Gal(b1-4)GlcNAc(b1-3)Gal(b1-4)GlcNAc(b1-3)Gal(b1-4)GlcNAc(b1-3)Gal(b1-4)GlcNAc(b1-3)Gal(b1-4)GlcNAc(b1-2)Man(a1-3)[Gal(b1-4)GlcNAc(b1-3)Gal(b1-4)GlcNAc(b1-3)Gal(b1-4)GlcNAc(b1-3)Gal(b1-4)GlcNAc(b1-3)Gal(b1-4)GlcNAc(b1-2)Man(a1-6)]Man(b1-4)GlcNAc(b1-4)GlcNAc
Procedure, shortened: as §1

[15] = target: Gal(b1-4)GlcNAc(b1-3)Gal(b1-4)GlcNAc(b1-3)Gal(b1-4)GlcNAc(b1-3)Gal(b1-4)GlcNAc(b1-3)Gal(b1-4)GlcNAc(b1-2)Man(a1-3)[Gal(b1-4)GlcNAc(b1-3)Gal(b1-4)GlcNAc(b1-3)Gal(b1-4)GlcNAc(b1-3)Gal(b1-4)GlcNAc(b1-3)Gal(b1-4)GlcNAc(b1-2)Man(a1-6)]Man(b1-4)GlcNAc(b1-4)[Fuc(a1-6)]GlcNAc
Procedure, shortened: as §1

[16] = target: Gal(b1-4)GlcNAc(b1-3)Gal(b1-4)GlcNAc(b1-3)Gal(b1-4)GlcNAc(b1-3)Gal(b1-4)GlcNAc(b1-3)Gal(b1-4)GlcNAc(b1-2)[Gal(b1-4)GlcNAc(b1-3)Gal(b1-4)GlcNAc(b1-3)Gal(b1-4)GlcNAc(b1-3)Gal(b1-4)GlcNAc(b1-3)Gal(b1-4)GlcNAc(b1-6)]Man(a1-6)[Gal(b1-4)GlcNAc(b1-3)Gal(b1-4)GlcNAc(b1-3)Gal(b1-4)GlcNAc(b1-3)Gal(b1-4)GlcNAc(b1-3)Gal(b1-4)GlcNAc(b1-2)Man(a1-3)]Man(b1-4)GlcNAc(b1-4)[Fuc(a1-6)]GlcNAc
Procedure, shortened: as §1

[17] = target: Gal(b1-4)GlcNAc(b1-3)Gal(b1-4)GlcNAc(b1-3)Gal(b1-4)GlcNAc(b1-3)Gal(b1-4)GlcNAc(b1-3)Gal(b1-4)GlcNAc(b1-3)Gal(b1-4)GlcNAc(b1-2)Man(a1-3)[Gal(b1-4)GlcNAc(b1-3)Gal(b1-4)GlcNAc(b1-3)Gal(b1-4)GlcNAc(b1-3)Gal(b1-4)GlcNAc(b1-3)Gal(b1-4)GlcNAc(b1-3)Gal(b1-4)GlcNAc(b1-2)Man(a1-6)]Man(b1-4)GlcNAc(b1-4)GlcNAc
Procedure, shortened: as §1

[18] = target: Gal(b1-4)GlcNAc(b1-3)Gal(b1-4)GlcNAc(b1-3)GalNAc
Procedure, shortened: as §1

[19] = target: Gal(b1-4)GlcNAc(b1-3)Gal(b1-4)GlcNAc(b1-3)[Gal(b1-4)GlcNAc(b1-3)Gal(b1-4)GlcNAc(b1-6)]GalNAc
Procedure, shortened: as §1

B1: AntigenI/IIA3VP1 (Streptococcus mutans), C9E3B4 (protein)
chain: AANEADYQAKLTAYQTELARVQKANADAKAAYEAAVAANNAANAALTAENTAIKKRNADAKADYEAKLAKYQADLAKYQKDLADYPVKLKAYEDEQASIKAALAELEKHKNEDGNLTEPSAQNLVYDLEPNANLSLTTDGKFLKASAVDDAFSKSTSKAKYDQKILQLDDLDITNLEQSNDVASSMELYGNFGDKAGWSTTVSNNSQVKWGSVLLERGQSATATYTNLQNSYYNGKKISKIVYKYTVDPKSKFQGQKVWLGIFTDPTLGVFASAYTGQVEKNTSIFIKNEFTFYDEDGKPINFDNALLSVASLNREHNSIEMAKDYSGKFVKISGSSIGEKNGMIYATDTLNFKQGEGGSRWTMYKNSQAGSGWDSSDAPNSWYGAGAIKMSGPNNYVTVGATSATNVMPVSDMPVVPGKDNTDGKKPNIWYSLNGKIRAVNVPKVTKEKPTPPVKPTAPTKPTYETEKPLKPAPVAPNYEKEPTPPTRLEHHHHHH
glycan array binding signal (z-score) [1]: -0.381 | glycan array binding signal (z-score) [2]: -0.087 | glycan array binding signal (z-score) [3]: 0.701 | glycan array binding signal (z-score) [4]: 2.04 | glycan array binding signal (z-score) [5]: 1.55 | glycan array binding signal (z-score) [6]: 1.53 | glycan array binding signal (z-score) [7]: -0.396 | glycan array binding signal (z-score) [8]: 0.927 | glycan array binding signal (z-score) [9]: 1.39 | glycan array binding signal (z-score) [10]: 1.81 | glycan array binding signal (z-score) [11]: 2.52 | glycan array binding signal (z-score) [12]: 3.27 | glycan array binding signal (z-score) [13]: 2.27 | glycan array binding signal (z-score) [14]: 2.2 | glycan array binding signal (z-score) [15]: 1.3 | glycan array binding signal (z-score) [16]: 1.71 | glycan array binding signal (z-score) [17]: 3.91 | glycan array binding signal (z-score) [18]: 2 | glycan array binding signal (z-score) [19]: 0.339
